Source: PMC10296906, “GPCR Binding and JNK3 Activation by Arrestin-3 Have Different Structural Requirements” (Cells, 2023)
These are yes or no findings as the source states them, for the method shown. Binding seen in cells or lysates may run through a third protein. Binding can be weak; no strength is given.

Protein sequences, listed by entry. Tags and fused reporters are not part of them.
UniProt P08172: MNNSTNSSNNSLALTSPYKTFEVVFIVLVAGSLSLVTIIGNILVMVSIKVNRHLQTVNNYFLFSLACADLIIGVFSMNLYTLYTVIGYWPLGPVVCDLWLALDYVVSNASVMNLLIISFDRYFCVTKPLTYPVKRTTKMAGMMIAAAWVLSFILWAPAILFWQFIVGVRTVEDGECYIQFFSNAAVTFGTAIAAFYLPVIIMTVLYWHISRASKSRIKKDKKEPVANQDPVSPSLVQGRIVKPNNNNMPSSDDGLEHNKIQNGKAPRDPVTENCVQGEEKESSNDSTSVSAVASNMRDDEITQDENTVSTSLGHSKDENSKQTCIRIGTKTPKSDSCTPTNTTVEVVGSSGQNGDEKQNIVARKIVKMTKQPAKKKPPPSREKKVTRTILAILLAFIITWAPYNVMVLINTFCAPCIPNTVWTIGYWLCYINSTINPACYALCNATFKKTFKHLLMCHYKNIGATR

Biological target: LgBiT-tagged human M2 muscarinic acetylcholine receptor (human) (UniProt P08172)
Test: split reporter; NanoBiT complementation in live HEK293 arrestin-2/3 KO cells: SmBiT-arrestin-3 and receptor-LgBiT co-expressed; luminescence read 20 min with nanoGlo substrate, then agonist added (10 µM isoproterenol for β2AR, 10 µM carbachol for M2R) and read 40 min; signal normalized to the basal signal without agonist

Substance | binding
SmBiT-tagged arrestin-3 3A + K295E (from UniProt P32120-2) | binds
SmBiT-tagged arrestin-3 D291R + K295A (from UniProt P32120-2) | binds
SmBiT-tagged arrestin-3 R170E + K295A (from UniProt P32120-2) | binds
SmBiT-tagged arrestin-3 R170E + K295E (from UniProt P32120-2) | binds

Next, values leading:

binding | Substance
binds | SmBiT-tagged arrestin-3 3A + K295A (from UniProt P32120-2)
binds | SmBiT-tagged arrestin-3 D291R (from UniProt P32120-2)
binds | SmBiT-tagged arrestin-3 D291R + K295E (from UniProt P32120-2)
binds | SmBiT-tagged arrestin-3 R170E (from UniProt P32120-2)
